Results taken from publication PMC13373324.

The chains behind the UniProt entries cited, without tags or fusion partners. Where a name states a change or a piece, a line headed by the entry shows the natural chain unless it says otherwise.
UniProt P35817: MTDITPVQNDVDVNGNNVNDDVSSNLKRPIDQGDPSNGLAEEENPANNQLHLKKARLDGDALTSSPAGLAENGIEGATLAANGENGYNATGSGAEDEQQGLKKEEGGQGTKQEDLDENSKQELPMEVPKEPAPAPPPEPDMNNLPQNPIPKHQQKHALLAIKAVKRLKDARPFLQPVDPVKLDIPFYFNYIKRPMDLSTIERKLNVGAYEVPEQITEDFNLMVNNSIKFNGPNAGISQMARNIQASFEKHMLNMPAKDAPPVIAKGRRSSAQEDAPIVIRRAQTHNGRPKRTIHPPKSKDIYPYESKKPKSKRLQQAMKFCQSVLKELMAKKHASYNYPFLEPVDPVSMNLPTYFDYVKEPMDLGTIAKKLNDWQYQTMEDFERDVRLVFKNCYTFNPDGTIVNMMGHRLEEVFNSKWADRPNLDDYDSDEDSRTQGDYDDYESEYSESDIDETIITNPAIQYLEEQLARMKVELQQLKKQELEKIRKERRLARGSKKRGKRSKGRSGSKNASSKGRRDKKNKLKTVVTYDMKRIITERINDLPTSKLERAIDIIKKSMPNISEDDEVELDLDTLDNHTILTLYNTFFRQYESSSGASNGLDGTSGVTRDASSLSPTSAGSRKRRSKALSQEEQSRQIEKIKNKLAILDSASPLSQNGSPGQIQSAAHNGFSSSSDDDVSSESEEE

Target: T1, Taf7 (WT) (S. cerevisiae) (UniProt Q05021)
T1 sequence: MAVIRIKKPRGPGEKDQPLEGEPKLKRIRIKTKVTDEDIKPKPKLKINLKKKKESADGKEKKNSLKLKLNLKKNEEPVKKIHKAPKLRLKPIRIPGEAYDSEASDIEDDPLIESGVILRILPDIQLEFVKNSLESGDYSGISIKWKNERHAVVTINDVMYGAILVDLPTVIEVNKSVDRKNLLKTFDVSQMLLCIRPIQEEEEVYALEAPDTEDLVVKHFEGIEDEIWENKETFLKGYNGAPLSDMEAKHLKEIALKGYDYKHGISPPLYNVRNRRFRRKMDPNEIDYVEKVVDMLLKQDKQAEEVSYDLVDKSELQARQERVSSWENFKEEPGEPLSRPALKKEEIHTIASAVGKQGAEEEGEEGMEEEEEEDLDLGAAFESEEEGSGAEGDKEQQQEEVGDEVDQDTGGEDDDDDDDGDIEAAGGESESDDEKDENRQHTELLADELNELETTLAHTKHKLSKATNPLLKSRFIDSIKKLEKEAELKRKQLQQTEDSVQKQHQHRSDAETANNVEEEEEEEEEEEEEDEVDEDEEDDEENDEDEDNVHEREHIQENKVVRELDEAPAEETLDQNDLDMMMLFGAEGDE
Assay: two-hybrid; Matchmaker Gold Y2H system; strain Y2HGold co-transformed with Gal4-BD (pGBKT7) and Gal4-AD (pGADT7) plasmids; tenfold serial dilutions spotted on SC-Leu-Trp and SC-Leu-Trp-His plates, 30°C, imaged daily for at least 4 days

| binding | Substance |
| --- | --- |
| binds | Bdf1 ET domain (WT) (from UniProt P35817) (domain or fragment) |
| no binding | Bdf1 ET domain with four conserved acidic residues substituted with alanine (S. cerevisiae) (domain or fragment) |

No constants are given. Whether binding was seen depends on the method and setting. Binding can be weak; no strength is given.
